The text below walks through data of publication PMC7164261.

Amino acid sequences for entries named in this document (tags omitted). A change or cut given only in a name is not applied to a line headed by its entry.
UniProt Q9D6K5: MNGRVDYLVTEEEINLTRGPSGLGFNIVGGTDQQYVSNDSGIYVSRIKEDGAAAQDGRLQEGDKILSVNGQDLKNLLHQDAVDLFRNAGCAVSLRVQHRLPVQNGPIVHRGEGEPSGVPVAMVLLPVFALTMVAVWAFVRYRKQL

For assay [1], the target named is T1, GST-TMIGD1 (cytoplasmic tail of human TMIGD1, AA 242-262) (human) (UniProt Q6UXZ0).
T1 sequence: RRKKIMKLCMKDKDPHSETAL
The assay is described as follows: pull-down; 3 μg GST fusion protein on glutathione-Sepharose 4B, incubated with lysates of transfected HEK293T cells for 2 h at 4 °C; lysis buffer 50 mM TrisHCl pH 7.4, 1% NP-40, 150 mM NaCl; blot with anti-SYNJ2BP antibodies; only the target purified.

Assay [2] concerns the target T2, GST-TMIGD1/Δ5 (cytoplasmic tail of human TMIGD1 lacking the PDZ domain binding motif, AA 242-257) (human) (UniProt Q6UXZ0).
T2 sequence: RRKKIMKLCMKDKDPH
The description is as above.

Results are given in words; binding and its absence hold for the method and conditions named. Binding seen in cells or lysates may run through a third protein. For some assays here: A result given as binding can be weak or reduced; the word gives no strength. Sequences can lack the tags named with a protein.

For “SYNJ2BP from SYNJ2BP-transfected HEK293T cells (prey of the GST pull-down) (from UniProt Q9D6K5)”, the binding result is “binds” in assay [1] and “no binding” in assay [2].
